Measurements as given in PubChem BioAssay AID1259354 (Paczesny and Yang Labs, IUPUI and University of Michigan, 2018).
Screen size: about 78,000 compounds; about 1,800 (2.3%) were called active. The shares of active, inactive and inconclusive entries below differ from those in the screen. No stated cut-off is given here; in the data, active means inhibition above about 30%; inconclusive means mostly about 10% to 28%; inactive means weaker than that.

Chains of the proteins cited; added tags and fusions are not shown. Lines headed by an entry give the natural chain unless they say otherwise; changes in a name come on top.
UniProt Q01638: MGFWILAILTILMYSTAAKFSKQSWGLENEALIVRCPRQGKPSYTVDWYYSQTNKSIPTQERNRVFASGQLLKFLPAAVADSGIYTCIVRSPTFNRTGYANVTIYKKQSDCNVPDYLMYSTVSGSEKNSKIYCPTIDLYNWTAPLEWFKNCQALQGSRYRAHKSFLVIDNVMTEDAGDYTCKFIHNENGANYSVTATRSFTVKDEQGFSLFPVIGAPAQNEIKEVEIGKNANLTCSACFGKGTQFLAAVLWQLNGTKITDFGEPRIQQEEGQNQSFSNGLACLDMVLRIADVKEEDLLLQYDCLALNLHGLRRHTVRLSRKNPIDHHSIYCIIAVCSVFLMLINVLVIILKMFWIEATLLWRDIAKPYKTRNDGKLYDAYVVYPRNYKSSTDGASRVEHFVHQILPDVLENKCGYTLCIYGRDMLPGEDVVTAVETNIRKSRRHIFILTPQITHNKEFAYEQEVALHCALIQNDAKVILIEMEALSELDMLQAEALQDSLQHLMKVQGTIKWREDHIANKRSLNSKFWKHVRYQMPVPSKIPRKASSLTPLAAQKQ

What follows are compounds tested against Interleukin-1 receptor-like 1 (Homo sapiens) (UniProt Q01638) (assay: blocks human ST2 binding to IL-33, primary screen, biochemical, AlphaLISA (AID 1259354)). Settings: AlphaLISA ST2-Fc/biotin-IL-33 interaction, 1 h; at 17 µM, hits give high values.
With `N#CSC(C#N)Cc1cccc(Cl)c1` (stereo not drawn) the inhibition was active: 34%. In the case of `CN(C)c1ccc(-c2nc3cc(N=Cc4cc([N+](=O)[O-])cc([N+](=O)[O-])c4O)ccc3o2)cc1`, the inhibition is reported as “inactive”. With `COc1ccc(OC)c(S(=O)(=O)Nc2ccccc2Br)c1` the inhibition was “inactive”. For `O=C1OCCN1S(=O)(=O)c1ccc(Cl)cc1`, the inhibition was “inactive”. In the case of `COc1cccc(C2C(C(=O)OCc3ccccc3)=C(C)Nc3ncnn32)c1OC` (stereo not drawn), the inhibition is reported as inconclusive: 15%. With `OCCCc1cn(Cc2ccccc2)c2ccccc12` the inhibition was inconclusive: 11%. For `c1cnn(-c2cc(N3CCC(n4cc(-c5ccsc5)nn4)CC3)ncn2)c1`, the inhibition was “inactive”. With `CN1CCCn2nc(C(=O)NC3CCN(Cc4cccc(O)c4)CC3)cc2C1` the inhibition was inconclusive: 22%. In the case of `COc1cc2c(cc1OC)C(C(=O)N1CCC(C(N)=O)CC1)C(c1ccccc1F)N(C)C2=O` (stereo not drawn), the inhibition is reported as “inactive”. For `N#CC1=C(SCC(=O)OCc2ccccc2)NC(=O)CC1c1ccc(Cl)cc1Cl` (stereo not drawn), the inhibition was inconclusive: 15%. `CCN1C(=O)CSc2ccc(C(=O)NCc3c(F)cc(F)cc3F)cc21` was tested, and the inhibition was “inactive”. For `O=C1NN(c2ccc(Cl)c(Cl)c2)C(=O)/C1=C/c1ccc(-c2ccc3c(c2)COC3=O)o1`, the inhibition was inconclusive: 23%. For `N#Cc1ccccc1NC(=O)c1ccc(Br)cc1`, the inhibition was inconclusive: 10%. For `COc1cccc(-c2noc3c2CN(c2ncnc4c2CCC4)CC3)c1`, the inhibition was inconclusive: 10%. `CCOc1ccc(-n2c(SC)nc3c([nH]c4ccccc43)c2=O)cc1` was tested, and the inhibition was inconclusive: 12%. For `CC(=O)Nc1ccc(CN2CC[C@H](c3nnc(-c4ccccc4)o3)C2)cc1`, the inhibition was inconclusive: 15%. With `CCn1ncnc1C(C)NC(=O)c1cc(-n2cccn2)ccc1Cl` (stereo not drawn) the inhibition was “inactive”. In the case of `O=C1CO[C@H]2CN(C3CCCCC3)C[C@H]2N1CC1CC1`, the inhibition is reported as inconclusive: 10%. `O=c1c2c([nH]c3ccccc13)OCCC2` was tested, and the inhibition was “inactive”. For `Cc1cc(Nc2ccccc2)nc(N2CCN(S(=O)(=O)c3ccccc3Cl)CC2)n1`, the inhibition was inconclusive: 15%. In the case of `CC(=O)Oc1cccc(C2C(C(=O)OC(C)C)=C(C)N=C3SCCC(=O)N32)c1` (stereo not drawn), the inhibition is reported as inconclusive: 16%. In the case of `COc1cccc(OCC(O)CN2CCN(c3cc(Cl)ccc3C)CC2)c1` (stereo not drawn), the inhibition is reported as “inactive”. With `Cc1occc1C(=O)Nc1ccc(C(=O)N(Cc2ccncc2)C2CC2)cc1` the inhibition was inconclusive: 17%. With `O=C(CC(c1ccccc1)c1ccccc1F)N1CCN(C(=O)c2ccco2)CC1` (stereo not drawn) the inhibition was inconclusive: 18%. With `Cc1ccc(/C=C2\C(=O)Nc3ccc(Br)cc32)cc1` the inhibition was inconclusive: 14%. In the case of `CCSc1nnc(-c2cccnc2)n1Cc1ccccc1`, the inhibition is reported as “inactive”. In the case of `N#CC1=C(N)Oc2n[nH]c(-c3ccccc3)c2C1c1ccc(Br)cc1` (stereo not drawn), the inhibition is reported as “inactive”. `COc1ccc(Nc2cc(C)nc(N3CCN(S(=O)(=O)c4cc(Cl)c(C)cc4OC)CC3)n2)cc1` was tested, and the inhibition was “inactive”. With `CCN1C(=O)NC(=O)/C(=C\c2cn(CCOc3ccccc3Cl)c3ccccc23)C1=O` the inhibition was inconclusive: 21%. With `O=C(NCC1CCCO1)C1CCN(C2CCN(Cc3cccnc3)CC2)CC1` (stereo not drawn) the inhibition was inconclusive: 16%. With `CN(Cc1ccco1)S(=O)(=O)c1ccc2[nH]cc(C(=O)O)c(=O)c2c1` the inhibition was inconclusive: 11%. In the case of `CCn1cc(CN(C)C2CCCN(CCc3ccccc3)C2)c(C)n1` (stereo not drawn), the inhibition is reported as “inactive”. In the case of `Cn1c(=O)c2c(nc(N3CCCCC3)n2Cc2c(Cl)cccc2Cl)n(C)c1=O`, the inhibition is reported as active: 31%. With `Nc1[nH]nc2nc(N3CCCCC3)nc(-c3ccccc3)c12` the inhibition was “inactive”. In the case of `CCOC(=O)C1=C(N)OC2=C(C(=O)CC(c3ccccc3)C2)C1c1cc(OC)ccc1OC` (stereo not drawn), the inhibition is reported as inconclusive: 12%. `Cc1nc(N2CCC(C(=O)NCCc3ccccc3)CC2)nc2cc3c(cc12)CCC3` was tested, and the inhibition was inconclusive: 17%. `CC1=C[C@@H](CNC(=O)c2ccccc2)[C@H](C(C)C)C[C@H]1CC(=O)N1CCN(c2ccccn2)CC1` was tested, and the inhibition was inconclusive: 17%. With `O=C(Nc1nc(-c2cccnc2)cs1)c1cccc(N2C(=O)CCC2=O)c1` the inhibition was inconclusive: 10%. `CC(C)CCN1CCNC(=O)C1CC(=O)NC1CCN(c2ccccc2)CC1` (stereo not drawn) was tested, and the inhibition was “inactive”. For `O=C(CN1C(=O)S/C(=C/c2ccc(Br)cc2)C1=O)Nc1ccc(O)cc1`, the inhibition was inconclusive: 11%. With `CC(C)c1cc(C(=O)Nc2cc(Br)ccc2O)no1` the inhibition was inconclusive: 18%. `O=C1c2ccccc2C(=O)N1CC(O)COCc1ccccc1` (stereo not drawn) was tested, and the inhibition was inconclusive: 11%. In the case of `CCOc1cc(C2NC(=O)NC(C)=C2C(=O)OC(C)C)ccc1OCc1ccccc1` (stereo not drawn), the inhibition is reported as “inactive”. In the case of `O=C(Nc1ccccc1Br)c1ccco1`, the inhibition is reported as inconclusive: 10%. With `CCn1nc(CO)c2c1CCN(c1nccc(C3CCCC3)n1)C2` the inhibition was “inactive”. `CCOc1ccccc1CN(CC)C(=O)c1ccccc1-n1cncn1` was tested, and the inhibition was inconclusive: 14%. For `Cc1noc(C)c1CCC(=O)N1CCCC(CCc2cccc(F)c2)C1` (stereo not drawn), the inhibition was inconclusive: 11%. With `O=C(Cc1c(C(=O)O)[nH]c2ccccc12)NCc1ccco1` the inhibition was “inactive”. For `CCNc1nc(NCC)n2c(SCC(=O)Nc3ccccc3)nnc2n1`, the inhibition was inconclusive: 22%. With `Cc1c(C(=O)Nc2sc3c(c2C(N)=O)CCCCCC3)cccc1[N+](=O)[O-]` the inhibition was inconclusive: 13%. In the case of `CN(C)c1ccc(C(=O)N2CC[C@@H](CC(=O)O)[C@@H](CC3=NCCc4ccccc43)C2)cc1`, the inhibition is reported as inconclusive: 13%. With `CS(=O)(=O)N(CC(=O)N1CCC(Cc2ccccc2)CC1)c1ccccc1F` the inhibition was “inactive”. `N#Cc1c2c(c(NCc3cccnc3)n3c1nc1ccccc13)CCC2` was tested, and the inhibition was inconclusive: 19%. With `O=[N+]([O-])c1ccc(/C=C/S(=O)(=O)N2C=Cc3ccccc3C2c2c[nH]c3ccccc23)cc1` (stereo not drawn) the inhibition was inconclusive: 18%. In the case of `COc1ccccc1N1CCN(C2CCN(C3CCC(c4ccccc4)CC3)CC2)CC1` (stereo not drawn), the inhibition is reported as inconclusive: 11%. For `Cc1nc2c(ccc3nc(NC(=O)c4ccccc4Br)sc32)s1`, the inhibition was inconclusive: 19%. With `COc1cc(NC(=O)NC[C@H]2O[C@@H](CO)[C@@H](O)[C@H]2N2CCC(C)CC2)cc(OC)c1` the inhibition was inconclusive: 13%. For `CCOc1ccc(NS(=O)(=O)c2ccc(Cl)c(C)c2Cl)cc1`, the inhibition was “inactive”. In the case of `COc1cc2c(cc1OC)CN(C1CCCN(Cc3cccn3-c3ccccn3)C1)CC2` (stereo not drawn), the inhibition is reported as inconclusive: 11%. With `COCC1CCCCN1C(=O)CC1(c2ccccc2)CC(=O)N(Cc2ccc3c(c2)OCO3)C1=O` (stereo not drawn) the inhibition was inconclusive: 15%. In the case of `COc1ccc(CCC(=O)NCc2ccncc2)cc1`, the inhibition is reported as “inactive”. For `COCCN(Cc1ccc(C)cc1)CC1CCOC1` (stereo not drawn), the inhibition was inconclusive: 18%. For `COc1ccc(OCc2nc(C#N)c(NCCCn3ccnc3)o2)cc1`, the inhibition was inconclusive: 21%. For `COc1cc(NC(=O)c2cccs2)c(OC)cc1Br`, the inhibition was inconclusive: 10%. `C=CCN1C(=O)c2ccccc2Sc2ccc(C(=O)NCCc3ccccc3)cc21` was tested, and the inhibition was “inactive”. In the case of `Nc1ccc(C(c2ccccc2)c2ccc(N)cc2)cc1`, the inhibition is reported as inconclusive: 21%. For `COc1cc(OC)c(OC)cc1CN1CCN(c2ccccc2OC)CC1`, the inhibition was inconclusive: 10%. For `Cc1ccc(C(=O)N[C@H]2C[C@@H](c3nc(-c4ccncc4)no3)N(C)C2)cc1`, the inhibition was inconclusive: 20%. For `COc1ccccc1/C=C/C1=NC(=C\c2ccc(Cl)cc2)/C(=O)O1`, the inhibition was “inactive”. `C[C@@]1(O)CCN(CCn2c(=O)oc3ccccc32)C[C@@H]1Cc1ccccc1` was tested, and the inhibition was inconclusive: 10%. In the case of `COc1c(F)cc(-c2cccc3c2OC(CN)C3)cc1F` (stereo not drawn), the inhibition is reported as inconclusive: 12%. For `Cc1ccc(S(=O)(=O)N2CCSC2c2ccc(Br)cc2)cc1[N+](=O)[O-]` (stereo not drawn), the inhibition was inconclusive: 18%. In the case of `COc1ccccc1CN1CCC(CN(CC(C)C)C(=O)c2scnc2C)CC1`, the inhibition is reported as inconclusive: 12%. For `CC1CCc2c(sc(NC(=O)c3sc4ccccc4c3Cl)c2C(N)=O)C1` (stereo not drawn), the inhibition was “inactive”. With `Cc1ccc(N2C(=O)C3CC=CC(C)C3C2=O)cc1Cl` (stereo not drawn) the inhibition was “inactive”. For `Cc1ccc(-n2c(SCC(=O)N3CCCc4ccccc43)nc3c(c2=O)SCC3)cc1`, the inhibition was inconclusive: 14%. With `COC(=O)[C@@H]1Cc2ncn(Cc3ccc(OC)cc3)c2CN1C(=O)c1ccccc1` the inhibition was inconclusive: 17%. For `Cc1ccc2cc3cc(C(=O)N4CCN(c5ncccn5)CC4)sc3nc2c1`, the inhibition was inconclusive: 14%. For `c1ccc(C2=NN3COc4ccccc4C3C2)cc1` (stereo not drawn), the inhibition was “inactive”. For `C(=Nc1cc(-c2ccccc2)nn1-c1ccccc1)c1cccnc1`, the inhibition was active: 33%. With `Cc1cc(NC(=O)Cn2c(=O)n(-c3ccc(F)cc3)c(=O)c3sccc32)n[nH]1` the inhibition was inconclusive: 20%. With `COC(=O)C[C@@H]1C(C(=O)OC)=CO[C@@H](O[C@@H]2O[C@H](CO)[C@@H](O)[C@H](O)[C@H]2O)/C1=C\COC(=O)/C=C/c1ccccc1` the inhibition was “inactive”. With `CN1CCC2(CC1)CN(C(=O)CN(C)Cc1cccnc1)CCN2C` the inhibition was inconclusive: 13%. `CNc1nc2c(C)cccn2c(=O)c1C=Nc1ccc(Cl)cc1` was tested, and the inhibition was “inactive”. For `COc1ccc(N2C(=O)c3cccc4cccc(c34)C2=O)cc1Cl`, the inhibition was inconclusive: 14%. `COc1ccccc1N1COc2cc(C)c(Cl)c(C)c2C1` was tested, and the inhibition was inconclusive: 15%. In the case of `CCOc1nc(Nc2ccccc2)nc(NC2CCCC2)n1`, the inhibition is reported as inconclusive: 10%. For `Cc1ccc(N2C(=O)C(N3C(=O)c4ccccc4C3=O)C2c2ccc3c(c2)OCO3)cc1` (stereo not drawn), the inhibition was inconclusive: 20%. With `Cn1cccc1C(=O)N1C[C@@H](C(=O)O)C[C@@H](C(=O)N2CCCC2)C1` the inhibition was inconclusive: 18%. `CCOc1ccccc1CN1CCCC(CCC(=O)Nc2cc(Cl)ccc2OC)C1` (stereo not drawn) was tested, and the inhibition was inconclusive: 25%. In the case of `Cc1cc(F)cc(-c2c(-c3ccccc3)ncn2CCN2CCC(O)CC2)c1`, the inhibition is reported as inconclusive: 13%. `COc1ccc(N(CC(=O)N2CCN(C)CC2)S(=O)(=O)c2ccc(C)cc2)cc1OC` was tested, and the inhibition was “inactive”. `Cc1ncsc1CCN(C)C1CCN(S(C)(=O)=O)CC1` was tested, and the inhibition was inconclusive: 12%.
